The other results are listed elsewhere or left out. Many values rest on one well or one pass, so single values are uncertain.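 The apoptosis fraction was the count of cleaved-PARP antibody-stained nuclei relative to all DNA-stained nuclei, imaged in 1,536-well plates. Screening doses were set so most cells survived, and baseline and induced cleaved-PARP levels vary greatly across cell lines.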
Tested on: CBRC008 (line from a melanoma biopsy)
Test: cleaved PARP positive nuclei fraction relative to DMSO control; melanoma cells; higher = more apoptosis
Settings: library dose: low library concentration; 72 h

| Compound | cleaved PARP positive nuclei fraction |
| --- | --- |
| Cc1cc(Nc2cc(N3CCN(C)CC3)nc(Sc3ccc(NC(=O)C4CC4)cc3)n2)n[nH]1 [Tozasertib] + Cc1ccc(NC(=O)c2cccc(N(C)C)c2)cc1NC(=O)c1ccc(O)cc1 [ZM336372] (first compound 0.006 µM, partner dose 2 µM) | 161% |
| CC[C@]1(O)C[C@H]2CN(CCc3c([nH]c4ccccc34)[C@@](C(=O)OC)(c3cc4c(cc3OC)N(C=O)[C@H]3[C@@](O)(C(=O)OC)[C@H](OC(C)=O)[C@]5(CC)C=CCN6CC[C@]43[C@@H]65)C2)C1 [vincristine] + CC1(C)NC(=O)N(c2ccc([N+](=O)[O-])c(C(F)(F)F)c2)C1=O [nilutamide] (first compound 0.0001 µM, partner dose 1 µM) | 144% |
| N#CC[C@H](C1CCCC1)n1cc(-c2ncnc3[nH]ccc23)cn1 [ruxolitinib] + CO[C@@H]1[C@H](N(C)C(=O)c2ccccc2)C[C@H]2O[C@]1(C)n1c3ccccc3c3c4c(c5c6ccccc6n2c5c31)C(=O)NC4 [Midostaurin] (first compound 1 µM, partner dose 0.08 µM) | 346% |
| CCCCCCCCCCCCCCCCCCOP(=O)([O-])OC1CC[N+](C)(C)CC1 [Perifosine] + COc1cc2c(Oc3ccc4[nH]c(C)cc4c3F)ncnc2cc1OCCCN1CCCC1 [cediranib] (first compound 0.4 µM, partner dose 0.4 µM) | 42.6% |
| N#CC[C@H](C1CCCC1)n1cc(-c2ncnc3[nH]ccc23)cn1 [ruxolitinib] + COc1cc2c(Oc3ccc4[nH]c(C)cc4c3F)ncnc2cc1OCCCN1CCCC1 [cediranib] (first compound 1 µM, partner dose 0.4 µM) | 103% |
| O=C(/C=C/c1cccnc1)NCCCCC1CCN(C(=O)c2ccccc2)CC1 + O=C(O)c1ccc(-c2c[nH]c3ncc(-c4ccccc4)cc23)cc1C1CCCC1 [GSK650394] (first compound 0.01 µM, partner dose 0.16 µM) | 1860% |
| Cc1cc(Nc2cc(N3CCN(C)CC3)nc(Sc3ccc(NC(=O)C4CC4)cc3)n2)n[nH]1 [Tozasertib] + NCC(=O)Nc1ccc(-n2nc(C(F)(F)F)cc2-c2ccc3c(ccc4ccccc43)c2)cc1 [OSU03012] (first compound 0.006 µM, partner dose 1 µM) | 58% |
| Cc1cn(-c2cc(NC(=O)c3ccc(C)c(Nc4nccc(-c5cccnc5)n4)c3)cc(C(F)(F)F)c2)cn1 [nilotinib] + CO[C@@H]1[C@H](N(C)C(=O)c2ccccc2)C[C@H]2O[C@]1(C)n1c3ccccc3c3c4c(c5c6ccccc6n2c5c31)C(=O)NC4 [Midostaurin] (first compound 0.2 µM, partner dose 0.08 µM) | 89.1% |
| Cc1ccc(Nc2nccc(N(C)c3ccc4c(C)n(C)nc4c3)n2)cc1S(N)(=O)=O [Pazopanib] + CN(NC(=O)CC(=O)NN(C)C(=S)c1ccccc1)C(=S)c1ccccc1 [STA4783] (first compound 0.4 µM, partner dose 0.006 µM) | 1040% |
| COc1cc([C@@H]2c3cc4c(cc3[C@@H](O[C@@H]3O[C@@H]5CO[C@@H](C)O[C@H]5[C@H](O)[C@H]3O)[C@H]3COC(=O)[C@H]23)OCO4)cc(OC)c1O [etoposide] + Cc1ccc(NC(=O)c2cccc(N(C)C)c2)cc1NC(=O)c1ccc(O)cc1 [ZM336372] (first compound 0.02 µM, partner dose 2 µM) | 84% |
| O=C(/C=C/c1cccnc1)NCCCCC1CCN(C(=O)c2ccccc2)CC1 + CN(NC(=O)CC(=O)NN(C)C(=S)c1ccccc1)C(=S)c1ccccc1 [STA4783] (first compound 0.01 µM, partner dose 0.006 µM) | 4440% |

As entered above:
Under cleaved PARP positive nuclei fraction, N#CC[C@H](C1CCCC1)n1cc(-c2ncnc3[nH]ccc23)cn1 [ruxolitinib] + COc1cc2c(Oc3ccc4[nH]c(C)cc4c3F)ncnc2cc1OCCCN1CCCC1 [cediranib] (first compound 1 µM, partner dose 0.4 µM) is listed with 103%
Under cleaved PARP positive nuclei fraction, Cc1cc(Nc2cc(N3CCN(C)CC3)nc(Sc3ccc(NC(=O)C4CC4)cc3)n2)n[nH]1 [Tozasertib] + Cc1ccc(NC(=O)c2cccc(N(C)C)c2)cc1NC(=O)c1ccc(O)cc1 [ZM336372] (first compound 0.006 µM, partner dose 2 µM) is listed with 161%

Tested on: CBRC013 (line from a melanoma biopsy)
Test: as above
Settings: library dose: low library concentration; 72 h

| Compound | cleaved PARP positive nuclei fraction |
| --- | --- |
| O=c1[nH]nc(Sc2ncc([N+](=O)[O-])s2)n1-c1ccc2c(c1)OCCO2 + COc1cc2c(Oc3ccc4[nH]c(C)cc4c3F)ncnc2cc1OCCCN1CCCC1 [cediranib] (first compound 0.2 µM, partner dose 0.4 µM) | 88% |
| Cc1cc(Nc2cc(N3CCN(C)CC3)nc(Sc3ccc(NC(=O)C4CC4)cc3)n2)n[nH]1 [Tozasertib] + NC(=O)Nc1cc(-c2cccc(F)c2)sc1C(=O)N[C@H]1CCCNC1 [AZD7762] (first compound 0.006 µM, partner dose 0.02 µM) | 91% |
| Cc1cn(-c2cc(NC(=O)c3ccc(C)c(Nc4nccc(-c5cccnc5)n4)c3)cc(C(F)(F)F)c2)cn1 [nilotinib] + O=C(Nc1cccc(Cl)c1)Nc1ncc(CCNc2ncnc3ccsc23)s1 [SNS314] (first compound 0.2 µM, partner dose 0.0008 µM) | 84.9% |
| CCCCCCCCCCCCCCCCCCOP(=O)([O-])OC1CC[N+](C)(C)CC1 [Perifosine] + CC(C)(C)c1cnc(CSc2cnc(NC(=O)C3CCNCC3)s2)o1 [SNS-032] (first compound 0.4 µM, partner dose 0.01 µM) | 128% |
| O=C(Nc1cc(C(F)(F)F)cc(C(F)(F)F)c1)c1cc(Cl)ccc1O + NCC(=O)Nc1ccc(-n2nc(C(F)(F)F)cc2-c2ccc3c(ccc4ccccc43)c2)cc1 [OSU03012] (first compound 0.016 µM, partner dose 1 µM) | 188% |
| CCCCCCCCCCCCCCCCCCOP(=O)([O-])OC1CC[N+](C)(C)CC1 [Perifosine] + O=C(O)c1ccc(-c2c[nH]c3ncc(-c4ccccc4)cc23)cc1C1CCCC1 [GSK650394] (first compound 0.4 µM, partner dose 0.16 µM) | 85.9% |
| O=C(Nc1cc(C(F)(F)F)cc(C(F)(F)F)c1)c1cc(Cl)ccc1O + C[C@@H]1CCN(C(=O)CC#N)C[C@@H]1N(C)c1ncnc2[nH]ccc12 [CP690550] (first compound 0.016 µM, partner dose 1 µM) | 93.1% |
| CC[C@]1(O)C[C@H]2CN(CCc3c([nH]c4ccccc34)[C@@](C(=O)OC)(c3cc4c(cc3OC)N(C=O)[C@H]3[C@@](O)(C(=O)OC)[C@H](OC(C)=O)[C@]5(CC)C=CCN6CC[C@]43[C@@H]65)C2)C1 [vincristine] + CO[C@@H]1[C@H](N(C)C(=O)c2ccccc2)C[C@H]2O[C@]1(C)n1c3ccccc3c3c4c(c5c6ccccc6n2c5c31)C(=O)NC4 [Midostaurin] (first compound 0.0001 µM, partner dose 0.08 µM) | 109% |
| COc1cc([C@@H]2c3cc4c(cc3[C@@H](O[C@@H]3O[C@@H]5CO[C@@H](C)O[C@H]5[C@H](O)[C@H]3O)[C@H]3COC(=O)[C@H]23)OCO4)cc(OC)c1O [etoposide] + OCCn1cc(-c2cnc3nnn(Cc4ccc5ncccc5c4)c3n2)cn1 [PF04217903] (first compound 0.02 µM, partner dose 1 µM) | 139% |
| CCCCCCCCCCCCCCCCCCOP(=O)([O-])OC1CC[N+](C)(C)CC1 [Perifosine] + C[C@@H]1CCN(C(=O)CC#N)C[C@@H]1N(C)c1ncnc2[nH]ccc12 [CP690550] (first compound 0.4 µM, partner dose 1 µM) | 94.4% |
| O=C(/C=C/c1cccnc1)NCCCCC1CCN(C(=O)c2ccccc2)CC1 + Cc1ccc(NC(=O)c2cccc(N(C)C)c2)cc1NC(=O)c1ccc(O)cc1 [ZM336372] (first compound 0.01 µM, partner dose 2 µM) | 77.2% |
| Cc1ccc(Nc2nccc(N(C)c3ccc4c(C)n(C)nc4c3)n2)cc1S(N)(=O)=O [Pazopanib] + COc1cc(Nc2ncc(F)c(Nc3ccc4c(n3)NC(=O)C(C)(C)O4)n2)cc(OC)c1OC [Tamatinib] (first compound 0.4 µM, partner dose 0.4 µM) | 91.7% |
| N#CC[C@H](C1CCCC1)n1cc(-c2ncnc3[nH]ccc23)cn1 [ruxolitinib] + COc1cc(Nc2ncc(F)c(Nc3ccc4c(n3)NC(=O)C(C)(C)O4)n2)cc(OC)c1OC [Tamatinib] (first compound 1 µM, partner dose 0.4 µM) | 88.8% |
| COc1cc([C@@H]2c3cc4c(cc3[C@@H](O[C@@H]3O[C@@H]5CO[C@@H](C)O[C@H]5[C@H](O)[C@H]3O)[C@H]3COC(=O)[C@H]23)OCO4)cc(OC)c1O [etoposide] + CN(NC(=O)CC(=O)NN(C)C(=S)c1ccccc1)C(=S)c1ccccc1 [STA4783] (first compound 0.02 µM, partner dose 0.006 µM) | 94.9% |
| O=C(Nc1cc(C(F)(F)F)cc(C(F)(F)F)c1)c1cc(Cl)ccc1O + O=C(Nc1cccc(Cl)c1)Nc1ncc(CCNc2ncnc3ccsc23)s1 [SNS314] (first compound 0.016 µM, partner dose 0.0008 µM) | 92.1% |
| Cc1cn(-c2cc(NC(=O)c3ccc(C)c(Nc4nccc(-c5cccnc5)n4)c3)cc(C(F)(F)F)c2)cn1 [nilotinib] + NC(=O)Nc1cc(-c2cccc(F)c2)sc1C(=O)N[C@H]1CCCNC1 [AZD7762] (first compound 0.2 µM, partner dose 0.02 µM) | 123% |
| Cc1cn(-c2cc(NC(=O)c3ccc(C)c(Nc4nccc(-c5cccnc5)n4)c3)cc(C(F)(F)F)c2)cn1 [nilotinib] + O=C(O)c1ccc(-c2c[nH]c3ncc(-c4ccccc4)cc23)cc1C1CCCC1 [GSK650394] (first compound 0.2 µM, partner dose 0.16 µM) | 120% |
